The record followed here is publication PMC5989213.

By UniProt entry, the sequences of proteins in these tests, tags left out. Where a name states a change or a piece, a line headed by the entry shows the natural chain unless it says otherwise. Chains listed by the source or under a name are the forms on record and can include a tag or linker.
UniProt Q9Y6X0: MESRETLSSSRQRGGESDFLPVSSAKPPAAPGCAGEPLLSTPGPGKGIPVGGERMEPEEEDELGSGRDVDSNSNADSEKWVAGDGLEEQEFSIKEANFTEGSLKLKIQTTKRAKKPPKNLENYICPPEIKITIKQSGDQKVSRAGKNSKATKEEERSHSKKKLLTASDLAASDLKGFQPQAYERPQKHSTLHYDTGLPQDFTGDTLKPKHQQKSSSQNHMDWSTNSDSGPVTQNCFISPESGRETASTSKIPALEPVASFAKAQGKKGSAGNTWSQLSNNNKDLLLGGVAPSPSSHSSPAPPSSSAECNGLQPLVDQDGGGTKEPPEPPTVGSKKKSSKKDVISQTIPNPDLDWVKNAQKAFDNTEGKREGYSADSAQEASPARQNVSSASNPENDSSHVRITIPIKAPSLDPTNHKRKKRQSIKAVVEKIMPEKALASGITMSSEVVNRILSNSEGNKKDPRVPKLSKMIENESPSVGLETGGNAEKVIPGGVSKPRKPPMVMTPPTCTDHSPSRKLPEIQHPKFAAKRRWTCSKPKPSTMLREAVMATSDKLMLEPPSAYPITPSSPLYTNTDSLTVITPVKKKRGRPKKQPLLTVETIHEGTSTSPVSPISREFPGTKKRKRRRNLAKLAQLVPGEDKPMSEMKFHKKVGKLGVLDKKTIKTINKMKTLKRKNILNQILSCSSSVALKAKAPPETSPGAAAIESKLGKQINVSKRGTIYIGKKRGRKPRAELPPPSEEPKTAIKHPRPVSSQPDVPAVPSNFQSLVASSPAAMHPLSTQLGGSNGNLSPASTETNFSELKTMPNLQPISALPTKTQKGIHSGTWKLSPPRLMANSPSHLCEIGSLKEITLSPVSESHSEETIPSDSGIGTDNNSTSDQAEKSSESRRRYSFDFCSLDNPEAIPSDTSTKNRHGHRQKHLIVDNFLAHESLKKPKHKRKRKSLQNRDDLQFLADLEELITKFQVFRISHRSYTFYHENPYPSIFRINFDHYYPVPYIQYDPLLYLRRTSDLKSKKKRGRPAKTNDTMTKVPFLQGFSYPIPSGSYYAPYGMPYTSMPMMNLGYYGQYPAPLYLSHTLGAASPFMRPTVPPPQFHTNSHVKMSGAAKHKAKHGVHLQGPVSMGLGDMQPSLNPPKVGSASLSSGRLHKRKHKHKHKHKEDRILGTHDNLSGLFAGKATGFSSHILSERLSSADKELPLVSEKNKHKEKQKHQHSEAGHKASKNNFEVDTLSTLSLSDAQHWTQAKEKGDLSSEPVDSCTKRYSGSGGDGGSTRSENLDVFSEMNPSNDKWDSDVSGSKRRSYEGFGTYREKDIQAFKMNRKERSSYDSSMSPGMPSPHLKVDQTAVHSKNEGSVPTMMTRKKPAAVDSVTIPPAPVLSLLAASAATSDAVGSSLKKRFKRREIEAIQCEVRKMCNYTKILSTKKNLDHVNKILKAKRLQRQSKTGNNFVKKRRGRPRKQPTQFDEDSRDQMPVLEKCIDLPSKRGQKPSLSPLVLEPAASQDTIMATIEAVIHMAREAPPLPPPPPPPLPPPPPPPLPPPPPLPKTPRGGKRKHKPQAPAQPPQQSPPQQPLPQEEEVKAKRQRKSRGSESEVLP
GFP-fused SETBP1ΔHBM (Q9Y6X0, form named): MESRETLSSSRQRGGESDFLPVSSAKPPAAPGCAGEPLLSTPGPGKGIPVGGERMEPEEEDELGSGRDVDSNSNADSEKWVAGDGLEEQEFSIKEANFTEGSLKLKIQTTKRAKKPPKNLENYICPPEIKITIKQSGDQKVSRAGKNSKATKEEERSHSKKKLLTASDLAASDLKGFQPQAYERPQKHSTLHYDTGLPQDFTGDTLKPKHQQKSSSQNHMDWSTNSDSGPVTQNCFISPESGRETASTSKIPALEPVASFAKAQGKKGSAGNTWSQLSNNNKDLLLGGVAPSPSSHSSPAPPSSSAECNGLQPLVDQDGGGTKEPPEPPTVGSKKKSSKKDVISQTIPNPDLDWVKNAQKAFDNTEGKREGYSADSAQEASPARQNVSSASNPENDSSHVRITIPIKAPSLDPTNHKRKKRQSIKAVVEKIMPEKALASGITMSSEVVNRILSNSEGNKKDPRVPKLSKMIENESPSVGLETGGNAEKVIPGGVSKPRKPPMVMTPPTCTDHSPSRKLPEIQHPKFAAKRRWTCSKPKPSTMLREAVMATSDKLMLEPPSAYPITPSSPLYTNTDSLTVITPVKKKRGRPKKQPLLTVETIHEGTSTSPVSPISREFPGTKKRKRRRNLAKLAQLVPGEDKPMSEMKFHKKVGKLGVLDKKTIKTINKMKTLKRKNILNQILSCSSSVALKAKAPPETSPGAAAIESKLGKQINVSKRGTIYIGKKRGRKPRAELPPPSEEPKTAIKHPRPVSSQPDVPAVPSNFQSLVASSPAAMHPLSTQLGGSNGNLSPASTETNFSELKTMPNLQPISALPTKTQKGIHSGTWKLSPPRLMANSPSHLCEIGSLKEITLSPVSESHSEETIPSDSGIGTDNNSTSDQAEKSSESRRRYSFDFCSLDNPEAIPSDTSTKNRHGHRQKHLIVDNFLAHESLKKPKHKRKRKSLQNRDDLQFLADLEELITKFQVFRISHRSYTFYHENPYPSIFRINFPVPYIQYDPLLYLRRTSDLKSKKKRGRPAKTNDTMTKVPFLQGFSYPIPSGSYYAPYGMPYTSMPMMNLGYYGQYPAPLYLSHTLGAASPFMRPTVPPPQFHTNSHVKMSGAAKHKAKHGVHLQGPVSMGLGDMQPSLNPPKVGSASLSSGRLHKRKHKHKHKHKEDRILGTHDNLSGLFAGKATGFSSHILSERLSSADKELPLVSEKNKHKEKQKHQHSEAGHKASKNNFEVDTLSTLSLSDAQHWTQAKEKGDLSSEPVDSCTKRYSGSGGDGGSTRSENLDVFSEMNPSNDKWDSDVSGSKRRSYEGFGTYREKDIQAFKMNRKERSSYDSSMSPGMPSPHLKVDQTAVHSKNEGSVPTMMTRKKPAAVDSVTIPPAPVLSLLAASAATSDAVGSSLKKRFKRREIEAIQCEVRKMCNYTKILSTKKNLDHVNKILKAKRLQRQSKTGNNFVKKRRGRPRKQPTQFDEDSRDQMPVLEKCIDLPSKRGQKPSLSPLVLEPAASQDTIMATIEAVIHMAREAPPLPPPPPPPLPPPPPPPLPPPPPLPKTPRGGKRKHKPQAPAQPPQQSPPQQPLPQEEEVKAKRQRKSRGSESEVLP
GFP-fused SETBP1-G870S-ΔHBM (Q9Y6X0, form named): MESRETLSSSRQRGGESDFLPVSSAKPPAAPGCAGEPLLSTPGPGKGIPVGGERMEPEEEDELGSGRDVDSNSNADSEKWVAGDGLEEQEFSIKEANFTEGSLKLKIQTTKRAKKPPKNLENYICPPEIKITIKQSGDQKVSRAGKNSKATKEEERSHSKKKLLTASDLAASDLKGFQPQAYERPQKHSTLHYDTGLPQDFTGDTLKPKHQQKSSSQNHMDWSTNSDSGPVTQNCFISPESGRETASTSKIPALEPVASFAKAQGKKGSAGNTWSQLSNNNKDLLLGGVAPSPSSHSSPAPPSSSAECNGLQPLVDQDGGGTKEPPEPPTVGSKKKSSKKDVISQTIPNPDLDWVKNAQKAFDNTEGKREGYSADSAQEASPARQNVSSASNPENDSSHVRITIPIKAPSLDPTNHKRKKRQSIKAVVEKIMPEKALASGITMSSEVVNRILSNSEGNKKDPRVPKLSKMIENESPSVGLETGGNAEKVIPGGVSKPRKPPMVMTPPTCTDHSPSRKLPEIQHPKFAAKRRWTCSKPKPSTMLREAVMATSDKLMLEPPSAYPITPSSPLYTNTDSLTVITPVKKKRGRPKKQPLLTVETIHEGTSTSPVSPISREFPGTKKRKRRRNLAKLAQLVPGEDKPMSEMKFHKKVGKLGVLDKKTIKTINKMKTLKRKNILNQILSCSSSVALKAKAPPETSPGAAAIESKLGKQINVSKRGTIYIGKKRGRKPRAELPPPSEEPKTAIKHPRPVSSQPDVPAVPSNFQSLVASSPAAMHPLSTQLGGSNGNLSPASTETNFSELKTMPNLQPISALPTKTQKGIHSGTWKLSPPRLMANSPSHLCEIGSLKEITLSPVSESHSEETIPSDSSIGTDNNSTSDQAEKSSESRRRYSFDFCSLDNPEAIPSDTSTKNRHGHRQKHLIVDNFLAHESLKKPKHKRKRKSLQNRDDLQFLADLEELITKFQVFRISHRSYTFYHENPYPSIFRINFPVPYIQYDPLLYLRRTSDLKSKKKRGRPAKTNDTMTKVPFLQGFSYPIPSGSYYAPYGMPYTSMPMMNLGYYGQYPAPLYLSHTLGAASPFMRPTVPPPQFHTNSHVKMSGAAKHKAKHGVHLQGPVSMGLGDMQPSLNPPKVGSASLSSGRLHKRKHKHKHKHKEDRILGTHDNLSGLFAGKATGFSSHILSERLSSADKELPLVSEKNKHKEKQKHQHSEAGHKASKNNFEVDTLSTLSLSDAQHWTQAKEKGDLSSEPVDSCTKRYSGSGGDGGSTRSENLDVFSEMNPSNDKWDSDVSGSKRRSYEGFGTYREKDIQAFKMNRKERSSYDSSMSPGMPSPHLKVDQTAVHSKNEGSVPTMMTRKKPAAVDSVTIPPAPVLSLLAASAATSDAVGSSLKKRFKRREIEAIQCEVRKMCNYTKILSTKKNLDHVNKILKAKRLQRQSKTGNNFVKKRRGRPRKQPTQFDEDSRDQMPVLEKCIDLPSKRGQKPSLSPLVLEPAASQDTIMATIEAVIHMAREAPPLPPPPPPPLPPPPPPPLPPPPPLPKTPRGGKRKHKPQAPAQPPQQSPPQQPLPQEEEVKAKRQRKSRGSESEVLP
UniProt Q9Y297: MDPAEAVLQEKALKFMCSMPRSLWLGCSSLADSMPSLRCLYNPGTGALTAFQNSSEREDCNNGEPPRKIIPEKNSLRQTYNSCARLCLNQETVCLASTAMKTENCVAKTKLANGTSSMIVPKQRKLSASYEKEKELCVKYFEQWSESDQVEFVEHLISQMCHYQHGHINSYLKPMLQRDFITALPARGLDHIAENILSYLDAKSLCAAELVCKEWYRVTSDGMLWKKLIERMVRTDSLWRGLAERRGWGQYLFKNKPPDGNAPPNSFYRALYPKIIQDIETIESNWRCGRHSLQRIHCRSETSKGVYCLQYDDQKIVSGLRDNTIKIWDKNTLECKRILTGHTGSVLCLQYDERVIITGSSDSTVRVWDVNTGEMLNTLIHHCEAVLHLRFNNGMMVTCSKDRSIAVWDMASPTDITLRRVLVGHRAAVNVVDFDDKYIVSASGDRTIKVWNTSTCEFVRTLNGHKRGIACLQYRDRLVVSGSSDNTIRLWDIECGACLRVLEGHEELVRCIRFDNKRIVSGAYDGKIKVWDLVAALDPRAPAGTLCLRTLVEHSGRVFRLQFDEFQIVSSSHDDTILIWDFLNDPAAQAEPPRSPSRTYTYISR

In assay [1] the target is GFP-fused SETBP1 G870S (human) (UniProt Q9Y6X0). Kind of assay: FRET or BRET; acceptor photobleaching FRET in fixed HEK 293 cells 48 h after transfection; GFP on SETBP1 as donor, Alexa Fluor 555-conjugated secondary antibodies on the partner as acceptor; nuclear regions of interest.
Assay [2] deals with GFP-fused SETBP1ΔHBM (human) (UniProt Q9Y6X0). The assay is described as above.
The target of assay [3] is GFP-fused SETBP1 WT (human) (UniProt Q9Y6X0). Described as above.
Assay [4] deals with GFP-fused SETBP1-G870S-ΔHBM (human) (UniProt Q9Y6X0). Described as above.
Assay [5] has as its target V5-SETBP1-WT (human) (UniProt Q9Y6X0). Kind of assay: co-IP; V5-agarose beads (or anti-HCF1) on the sonicated nuclear fraction of transiently transfected HEK 293T cells, overnight at 4 °C; elution with Laemmli buffer, western blot. Background: A western blot detects proteins with antibodies after separation by electrophoresis.
In assay [6] the target is V5-SETBP1 G870S (human) (UniProt Q9Y6X0). The assay is described as above.
Assay [7] addresses V5-SETBP1-WT (human) (UniProt Q9Y6X0). The description is as above. The source holds these as a separate data set.
The target in assay [8] is V5-SETBP1 G870S (human) (UniProt Q9Y6X0). The assay is described as above. The source holds these as a separate data set.

Like-named read-outs stand apart in the source and are kept apart here. Results are given in words; binding and its absence hold for the method and conditions named. Binding seen in cells or lysates may run through a third protein. Some binding calls cover weakened binding; strength is not graded here.

As to “Flag-tagged β-TrCP (from UniProt Q9Y297 1-605)”, the binding entry is “no binding” in assay [1], “binds” in assay [2], “binds” in assay [3] and “no binding” in assay [4].

Take KMT2A (from UniProt Q03164 1-3969): the binding entry in assay [5] and in assay [6] was “binds” each time.

B1: PHF6 (protein, UniProt Q8IWS0 1-365)
chain: MSSSVEQKKGPTRQRKCGFCKSNRDKECGQLLISENQKVAAHHKCMLFSSALVSSHSDNESLGGFSIEDVQKEIKRGTKLMCSLCHCPGATIGCDVKTCHRTYHYHCALHDKAQIREKPSQGIYMVYCRKHKKTAHNSEADLEESFNEHELEPSSPKSKKKSRKGRPRKTNFKGLSEDTRSTSSHGTDEMESSSYRDRSPHRSSPSDTRPKCGFCHVGEEENEARGKLHIFNAKKAAAHYKCMLFSSGTVQLTTTSRAEFGDFDIKTVLQEIKRGKRMKCTLCSQPGATIGCEIKACVKTYHYHCGVQDKAKYIENMSRGIYKLYCKNHSGNDERDEEDEERESKSRGKVEIDQQQLTQQQLNGN
As to B1, the binding result in assay [7] and in assay [8] was “binds” throughout.
